No constants are given. Whether binding was seen depends on the method and setting. In cells and extracts the contact can be indirect. Sequences can lack the tags named with a protein.
Target: T1, DIX domain containing 1 (DIXDC1), Flag-tagged (UniProt Q155Q3)
T1 sequence: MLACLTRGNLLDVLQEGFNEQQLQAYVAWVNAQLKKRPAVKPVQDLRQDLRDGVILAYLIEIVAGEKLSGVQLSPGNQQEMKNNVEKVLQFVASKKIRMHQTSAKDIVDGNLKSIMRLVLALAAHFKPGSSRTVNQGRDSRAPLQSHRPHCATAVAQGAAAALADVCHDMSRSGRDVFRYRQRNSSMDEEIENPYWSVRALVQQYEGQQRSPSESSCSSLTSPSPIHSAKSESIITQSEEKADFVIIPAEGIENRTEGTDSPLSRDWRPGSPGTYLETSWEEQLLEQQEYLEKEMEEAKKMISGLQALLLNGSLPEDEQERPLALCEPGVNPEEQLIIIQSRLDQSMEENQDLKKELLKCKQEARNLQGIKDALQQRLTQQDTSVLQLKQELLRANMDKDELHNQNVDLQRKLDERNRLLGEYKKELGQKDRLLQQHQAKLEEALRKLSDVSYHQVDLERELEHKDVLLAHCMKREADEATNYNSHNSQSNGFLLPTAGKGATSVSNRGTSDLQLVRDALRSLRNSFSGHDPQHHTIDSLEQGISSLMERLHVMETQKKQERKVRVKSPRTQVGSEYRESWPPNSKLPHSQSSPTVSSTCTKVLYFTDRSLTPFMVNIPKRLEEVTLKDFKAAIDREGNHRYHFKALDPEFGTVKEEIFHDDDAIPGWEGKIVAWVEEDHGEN
Assay: co-IP; co-transfected HEK293T lysed in NP-40 lysis buffer (50 mM Tris/HCl pH 8.0, 150 mM NaCl, 1% NP-40, protease inhibitors); immunoprecipitated overnight at 4 °C with antibodies against Dvl2, VEGFR2 or DIXDC1, protein G agarose; western blot

By UniProt entry, the sequences of proteins in these tests, tags left out. Residues count along the entry.
UniProt P35968, residues 20-1356: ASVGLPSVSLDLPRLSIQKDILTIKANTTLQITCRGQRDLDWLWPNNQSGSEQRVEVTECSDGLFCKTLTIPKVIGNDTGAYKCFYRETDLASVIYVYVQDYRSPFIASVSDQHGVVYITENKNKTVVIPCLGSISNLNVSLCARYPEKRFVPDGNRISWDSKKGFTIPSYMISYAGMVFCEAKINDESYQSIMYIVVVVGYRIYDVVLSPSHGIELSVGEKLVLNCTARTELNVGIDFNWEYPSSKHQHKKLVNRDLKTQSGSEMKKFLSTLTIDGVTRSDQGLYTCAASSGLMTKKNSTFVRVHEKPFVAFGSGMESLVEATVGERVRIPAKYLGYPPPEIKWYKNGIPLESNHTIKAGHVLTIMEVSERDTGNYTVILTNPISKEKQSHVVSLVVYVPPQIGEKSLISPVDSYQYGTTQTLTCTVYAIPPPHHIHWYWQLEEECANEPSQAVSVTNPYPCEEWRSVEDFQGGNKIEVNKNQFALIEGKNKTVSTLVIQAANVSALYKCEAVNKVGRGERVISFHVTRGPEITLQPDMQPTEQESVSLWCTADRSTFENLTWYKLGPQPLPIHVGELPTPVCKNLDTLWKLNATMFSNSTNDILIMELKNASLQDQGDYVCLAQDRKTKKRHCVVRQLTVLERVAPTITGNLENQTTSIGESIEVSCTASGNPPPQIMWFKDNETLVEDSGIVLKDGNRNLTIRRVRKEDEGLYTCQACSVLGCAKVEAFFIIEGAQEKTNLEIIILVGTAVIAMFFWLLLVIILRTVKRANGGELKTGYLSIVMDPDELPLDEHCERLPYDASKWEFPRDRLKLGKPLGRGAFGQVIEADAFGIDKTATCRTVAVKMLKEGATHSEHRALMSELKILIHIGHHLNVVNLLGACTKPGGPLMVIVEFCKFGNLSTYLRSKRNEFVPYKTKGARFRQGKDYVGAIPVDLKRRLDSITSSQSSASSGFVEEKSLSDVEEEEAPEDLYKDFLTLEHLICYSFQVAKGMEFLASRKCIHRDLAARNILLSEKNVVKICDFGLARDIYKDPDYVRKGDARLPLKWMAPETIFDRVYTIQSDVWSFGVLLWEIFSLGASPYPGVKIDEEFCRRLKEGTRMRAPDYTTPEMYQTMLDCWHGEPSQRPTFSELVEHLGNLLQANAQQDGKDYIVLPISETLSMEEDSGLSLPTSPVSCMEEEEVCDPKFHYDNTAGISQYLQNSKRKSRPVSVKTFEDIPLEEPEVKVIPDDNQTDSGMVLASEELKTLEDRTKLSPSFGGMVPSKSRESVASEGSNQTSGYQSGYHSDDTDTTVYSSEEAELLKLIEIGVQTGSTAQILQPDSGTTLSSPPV

Vascular endothelial growth factor receptor 2 (VEGFR2), transfected (from UniProt P35968 20-1356)
binding: no binding

Reference: PMC8830128
